Results taken from paper PMC3545278 (Journal of pharmaceutical and biomedical analysis, 2012).

Assays:
[1] = Plasma stability, 37°C for 20 min, human plasma; format: in vitro ADME; details: 5% CO2, 20 min, mean ± SEM
[2] = Ultrafiltration; details: human, human plasma
[3] = Ultrafiltration; format: in vitro ADME; details: mouse, mouse plasma

Row | SMILES | %Stability [1] [%] | recovery at 20 min, 10 μM [2] [%] | recovery at 20 min, 10 μM [3] [%]
1 | CC(C)NCC(O)COc1ccc(CC(N)=O)cc1 (stereo not drawn) [Atenolol] | 104.2±1.0 |  | 
2 | Cc1cc(NS(=O)(=O)c2ccc(N)cc2)no1 [Sulfamethoxazole] |  | 106 ± 2.7 | 112 ± 3.7
